Results taken from publication PMC7863940.
Results are given in words; binding and its absence hold for the method and conditions named. In cells and extracts the contact can be indirect. Some results given as binding are weak or reduced against the parent protein; the word gives no strength. Sequences can lack the tags named with a protein.

Protein sequences, listed by entry. Tags and fused reporters are not part of them. Lines headed by an entry give the natural chain unless they say otherwise; changes in a name come on top. Residues count along the entry.
UniProt Q6PHU5, residues 74-825: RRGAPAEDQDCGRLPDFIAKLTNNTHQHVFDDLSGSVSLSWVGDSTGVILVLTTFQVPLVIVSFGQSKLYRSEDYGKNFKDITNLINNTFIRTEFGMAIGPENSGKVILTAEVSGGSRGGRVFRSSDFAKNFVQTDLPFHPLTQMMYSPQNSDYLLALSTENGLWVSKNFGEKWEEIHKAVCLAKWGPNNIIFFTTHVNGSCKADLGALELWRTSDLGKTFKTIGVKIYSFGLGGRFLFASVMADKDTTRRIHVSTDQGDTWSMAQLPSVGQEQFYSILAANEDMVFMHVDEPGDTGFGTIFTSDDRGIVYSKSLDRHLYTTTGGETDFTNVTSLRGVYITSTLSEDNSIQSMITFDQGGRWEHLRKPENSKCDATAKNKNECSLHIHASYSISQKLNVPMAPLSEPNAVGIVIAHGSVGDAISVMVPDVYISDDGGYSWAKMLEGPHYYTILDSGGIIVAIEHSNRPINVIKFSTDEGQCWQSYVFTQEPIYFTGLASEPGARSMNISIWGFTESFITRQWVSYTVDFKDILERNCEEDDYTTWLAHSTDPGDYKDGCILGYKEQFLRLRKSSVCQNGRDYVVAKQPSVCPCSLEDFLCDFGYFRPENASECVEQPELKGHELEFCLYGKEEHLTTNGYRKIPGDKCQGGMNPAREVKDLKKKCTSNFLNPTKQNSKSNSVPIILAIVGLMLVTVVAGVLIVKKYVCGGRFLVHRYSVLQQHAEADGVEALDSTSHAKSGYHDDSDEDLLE

Target: T1, glucose transporter-4 (Glut4) (mouse (endogenous in 3T3L1)) (UniProt P14142)
T1 sequence: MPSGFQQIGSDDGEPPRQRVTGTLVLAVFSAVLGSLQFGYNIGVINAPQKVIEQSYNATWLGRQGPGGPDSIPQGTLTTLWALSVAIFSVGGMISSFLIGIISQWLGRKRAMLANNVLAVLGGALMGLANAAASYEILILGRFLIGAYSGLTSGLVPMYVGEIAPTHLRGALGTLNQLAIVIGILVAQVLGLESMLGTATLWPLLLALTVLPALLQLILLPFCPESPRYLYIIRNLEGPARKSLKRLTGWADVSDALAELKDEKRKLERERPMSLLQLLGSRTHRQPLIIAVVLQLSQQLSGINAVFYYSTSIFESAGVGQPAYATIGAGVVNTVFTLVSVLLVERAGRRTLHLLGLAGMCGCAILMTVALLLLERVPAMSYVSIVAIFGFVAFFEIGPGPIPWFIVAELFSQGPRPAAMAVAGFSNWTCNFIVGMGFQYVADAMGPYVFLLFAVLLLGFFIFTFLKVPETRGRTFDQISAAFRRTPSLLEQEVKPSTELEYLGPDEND
Assay: co-IP; 200 µL of 1 µg/µL 3T3-L1 lysate, precleared with Protein A/G agarose, rocked with 2 µg Glut4-agarose antibody overnight at 4 °C; western blot for sortilin and Glut4; control cells and cells over-expressing Sort^17b (48 h)

binding: binds
Substance: sortilin wildtype splice variant (Sort^WT) (from UniProt Q6PHU5 74-825)
